Measured values from US20060009506A1, “Drugs for the treatment of neoplastic disorders” (Odyssey Thera, Inc., priority 2004, published 2006).
For at least one compound, name, drawing or mass did not settle the structure. Some compounds share one wording; it may come from a single statement.

Tests used:
cancer cells = test: Antiproliferative activity against cancer cells (cell line not stated); type: cell-based, human; settings: general statement
Excerpt: (§1) We first screened compounds derived from the known pharmacopeia and from a selected natural product collection using two types of assays: (a) measurements of post-translational modifications of proteins; (b) measurements of protein-protein interactions. For the purpose of measuring post-translational modifications of proteins, we used immunofluorescence methods combined with phospho-specific antibodies. For the purpose of quantifying and localizing protein complexes we used fluorescence methods based on protein-fragment complementation assays (PCA). ‘Hits’ from the initial screens were then tested for antiproliferative activity in up to 5 different human tumor cell lines. […] For drugs with antiproliferative activity in PC-3 cells, dose-response curves were generated to determine the EC50 for antiproliferative activity and additional tumor cell lines were tested to determine the breadth of activity. Methods for assay development, validation, screening, and testing of antiproliferative activity are described below.
Cells were maintained in various media as follows: A549, LoVo and PC-3 (Ham's F12K medium with 2 mM L-glutamine and 1.5 g/L sodium bicarbonate), MIA PaCa-2 (Dulbecco's modified Eagle's medium with 4 mM L-glutamine and 4.5 g/L glucose), U87-MG (MEM+Earle's BSS). Medium for each cell line was supplemented with 10% FBS and […] Penecillin/Streptomycin. All cells were grown in incubators set at 37° C., 5% CO2. Thiazolyl Blue Tetrazolium Bromide (MTT) based proliferation assays were performed to assess the anti-proliferative activities of the compounds on these cells. Cells were seeded in 96 well plates at a density of 750 cells/well 24 hours prior to compound treatment. The cells were incubated with varying concentrations of compounds for 120 hours. […] Background absorbance was established by wells containing medium but no cells. […] Mean absorbance values were calculated from 5 replicate wells of each drug treatment following subtraction of background absorbance from blank samples and plotted as a percentage of control.

cancer pathways = test: Screening of cancer pathways in human cells (PCA and phospho-immunofluorescence); type: cell-based; settings: cancer pathway in which the drug was active; screened at 10 micromolar, HEK293 cells
Excerpt: as §1, with “Methods for assay development, validation, screening, and testing of antiproliferative activity are described below.” left out
Immunofluorescence was performed on drug-treated cells using antibodies that specifically recognize phosphorylated forms of key signaling proteins. […] Background fluorescence due to nonspecific binding by the secondary antibody was established with the use of cells that were incubated with BSA/PBS and without primary antibodies. Fluorescence intensities were quantitated using Image J-based image analysis algorithm as described below. […]

Row | SMILES | Antiproliferative activity against cancer cells (cancer cells) | Pathway Activity (cancer pathways)
1 | CC(C)OC(=O)C(C)(C)Oc1ccc(C(=O)c2ccc(Cl)cc2)cc1 [Fenofibrate] | substantial antiproliferative activity | –
2 | C=C1c2c(Cl)ccc(O)c2C(=O)C2=C(O)[C@]3(O)C(=O)C(C(N)=O)=C(O)[C@@H](N(C)C)[C@@H]3[C@@H](O)[C@H]12 [Meclocycline] | substantial antiproliferative activity | invasion/metastasis
3 | COC(=O)C1=C(C)NC(C)=C(C(=O)OCCN(C)Cc2ccccc2)C1c1cccc([N+](=O)[O-])c1 (centres unmarked) [Nicardipine] | substantial antiproliferative activity | proliferation
